# Assay results from the supplement of paper PMC4635364.
# Structures can show the parent of a compound that is named as a salt. The list shows a part of the results. Single values are uncertain here, since repeats match poorly.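 Human fetal ventral-midbrain neural progenitor line ReNCell VM, differentiated without mitogens. Images stained for doublecortin (early neurons) or tyrosine hydroxylase (dopaminergic neurons) were scored by blinded raters against untreated wells (0 = no change). Repeats and both raters were averaged, and compounds averaging 2 or higher were picked as hits for retesting.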
# Assays:
# ReNCell VM [1] = assay: neuronal differentiation score (DCX+ cell fraction vs untreated, manual image score) (score (-3 to 3)); higher = more neuronal differentiation; conditions: 2 uM, 2 weeks
# ReNCell VM [2] = assay: dopaminergic neuron differentiation score (TH+ cell fraction vs untreated, manual image score) (score (0 to 3)); higher = more TH+ dopaminergic neuron differentiation; conditions: 2 uM, 4 weeks, BDNF 10 ng/ml + GDNF 10 ng/ml
structure (smiles),measurement,setting,value
COc1ccc2cc1Oc1ccc(cc1)C[C@H]1c3cc(c(OC)cc3CCN1C)Oc1c(OC)c(OC)cc3c1[C@H](C2)N(C)CC3,neuronal differentiation score,ReNCell VM [1]; library: Spectrum,inactive: 0
same,dopaminergic neuron differentiation score,ReNCell VM [2]; library: Spectrum,inactive: 0
CCCCc1nc2ccn(Cc3cccs3)c(=O)c2n1Cc1ccc(-c2ccccc2-c2nn[nH]n2)cc1,neuronal differentiation score,ReNCell VM [1]; library: Tocriscreen,inactive: 0
same,dopaminergic neuron differentiation score,ReNCell VM [2]; library: Tocriscreen,inactive: 0
"COc1c(CO)cc(CO)cc(CO)c1=O [3,5,7-tris-hydroxymethyl-2-methoxy-cyclohepta-2,4,6-trienone]",neuronal differentiation score,ReNCell VM [1]; library: Natural,inactive: 0
same,dopaminergic neuron differentiation score,ReNCell VM [2]; library: Natural,inactive: 0
CC(=O)O[C@]1(C(C)=O)CC[C@H]2[C@@H]3C=C(Cl)C4=CC(=O)[C@@H]5C[C@@H]5[C@]4(C)[C@H]3CC[C@@]21C,neuronal differentiation score,ReNCell VM [1]; library: Spectrum,inactive: 0
same,dopaminergic neuron differentiation score,ReNCell VM [2]; library: Spectrum,inactive: 0
Cc1cccc(C2CN(C)CCc3c2cc(O)c(O)c3Cl)c1 (configuration not stated),neuronal differentiation score,ReNCell VM [1]; library: LOPAC,inactive: 0
same,dopaminergic neuron differentiation score,ReNCell VM [2]; library: LOPAC,inactive: 0
Cc1cc(O)cc2c1C(=O)Oc1cc3c(c(O)c1O2)C(=O)OC3 [Variolaric acid],neuronal differentiation score,ReNCell VM [1]; library: Phytochemical,inactive: 0
same,dopaminergic neuron differentiation score,ReNCell VM [2]; library: Phytochemical,inactive: 0
Oc1ccc(O)cc1,neuronal differentiation score,ReNCell VM [1]; library: Spectrum,inactive: 0
same,dopaminergic neuron differentiation score,ReNCell VM [2]; library: Spectrum,inactive: 0
CC(C)(C)NC[C@H](O)COc1ccccc1C1CCCC1,neuronal differentiation score,ReNCell VM [1]; library: Spectrum,inactive: -1
same,dopaminergic neuron differentiation score,ReNCell VM [2]; library: Spectrum,inactive: 0
NC(=O)c1ccccc1O,neuronal differentiation score,ReNCell VM [1]; library: Spectrum,inactive: 0
same,dopaminergic neuron differentiation score,ReNCell VM [2]; library: Spectrum,inactive: 0
O=C(O)c1cccnc1,neuronal differentiation score,ReNCell VM [1]; library: Spectrum,inactive: 0
same,dopaminergic neuron differentiation score,ReNCell VM [2]; library: Spectrum,inactive: 0
CCCCCN(C)CCC(O)(P(=O)(O)O)P(=O)(O)O,neuronal differentiation score,ReNCell VM [1]; library: Spectrum,inactive: 0
same,dopaminergic neuron differentiation score,ReNCell VM [2]; library: Spectrum,inactive: 0
Cn1cnnc1Sc1c([N+](=O)[O-])ncn1C,neuronal differentiation score,ReNCell VM [1]; library: Tocriscreen,inactive: 0
same,dopaminergic neuron differentiation score,ReNCell VM [2]; library: Tocriscreen,inactive: 0
O=C(COc1cccc2c(=O)[nH]ccc12)c1ccccc1,neuronal differentiation score,ReNCell VM [1]; library: Tocriscreen,inactive: 0
same,dopaminergic neuron differentiation score,ReNCell VM [2]; library: Tocriscreen,inactive: 1
C[N+](C)(C)CC(O)CC(=O)[O-] (configuration not stated),neuronal differentiation score,ReNCell VM [1]; library: Spectrum,inactive: 0
same,dopaminergic neuron differentiation score,ReNCell VM [2]; library: Spectrum,inactive: 0
Nc1nnc(Sc2ncc([N+](=O)[O-])s2)s1,neuronal differentiation score,ReNCell VM [1]; library: Tocriscreen,inactive: 0
same,dopaminergic neuron differentiation score,ReNCell VM [2]; library: Tocriscreen,inactive: 0
CC1(C)[C@@H](O)CC[C@]2(C)[C@H]3C(=O)C=C4[C@@H]5C[C@@](C)(C(=O)O)CC[C@]5(C)CC[C@@]4(C)[C@]3(C)CC[C@@H]12 [Glycyrrhetinic Acid],neuronal differentiation score,ReNCell VM [1]; library: Phytochemical,inactive: 0
same,dopaminergic neuron differentiation score,ReNCell VM [2]; library: Phytochemical,inactive: 0
O=c1ccc2cc(O)c(O)cc2o1 [Esculetin],neuronal differentiation score,ReNCell VM [1]; library: Phytochemical,inactive: 0
same,dopaminergic neuron differentiation score,ReNCell VM [2]; library: Phytochemical,inactive: 0
NCC(O)C1CCCCCCC1 (configuration not stated) [2-Cyclooctyl-2-hydroxyethylamine hydrochloride],neuronal differentiation score,ReNCell VM [1]; library: LOPAC,inactive: 0
same,dopaminergic neuron differentiation score,ReNCell VM [2]; library: LOPAC,inactive: 0
N=C(N)NC(=N)Nc1ccccc1,neuronal differentiation score,ReNCell VM [1]; library: Spectrum,inactive: 0
same,dopaminergic neuron differentiation score,ReNCell VM [2]; library: Spectrum,inactive: 0
CN1CCCN=C1/C=C/c1cccc(O)c1,neuronal differentiation score,ReNCell VM [1]; library: Spectrum,inactive: 0
same,dopaminergic neuron differentiation score,ReNCell VM [2]; library: Spectrum,inactive: 0
CC1=C(/C=C/C(C)=C/C=C/C(C)=C/CO)C(C)(C)CCC1,neuronal differentiation score,ReNCell VM [1]; library: Spectrum,inactive: 0
same,dopaminergic neuron differentiation score,ReNCell VM [2]; library: Spectrum,inactive: 0
CCC(C)C(NC)C(=O)O (configuration not stated),neuronal differentiation score,ReNCell VM [1]; library: Spectrum,inactive: 0
same,dopaminergic neuron differentiation score,ReNCell VM [2]; library: Spectrum,inactive: 0
CCCn1c(=O)[nH]c(=O)c2[nH]cnc21 [3-n-Propylxanthine],neuronal differentiation score,ReNCell VM [1]; library: LOPAC,inactive: 0
same,dopaminergic neuron differentiation score,ReNCell VM [2]; library: LOPAC,inactive: 0
CCCOc1ccccc1-c1nc2[nH]nnc2c(=O)[nH]1,neuronal differentiation score,ReNCell VM [1]; library: Spectrum,inactive: 0
same,dopaminergic neuron differentiation score,ReNCell VM [2]; library: Spectrum,inactive: 0
COc1ccc2cc([C@H](C)C(=O)O)ccc2c1 [Naproxen],neuronal differentiation score,ReNCell VM [1]; library: Prestwick,inactive: 0
same,dopaminergic neuron differentiation score,ReNCell VM [2]; library: Prestwick,inactive: 0
CCc1cc(C(N)=S)ccn1,neuronal differentiation score,ReNCell VM [1]; library: Spectrum,inactive: 0
same,dopaminergic neuron differentiation score,ReNCell VM [2]; library: Spectrum,inactive: 0
CCCSc1ccc2[nH]c(NC(=O)OC)nc2c1 [Albendazole],neuronal differentiation score,ReNCell VM [1]; library: Prestwick,inactive: 0
same,dopaminergic neuron differentiation score,ReNCell VM [2]; library: Prestwick,inactive: 0
N=C(N)SCCN [2-(2-Aminoethyl)isothiourea dihydrobromide],neuronal differentiation score,ReNCell VM [1]; library: LOPAC,inactive: 0
same,dopaminergic neuron differentiation score,ReNCell VM [2]; library: LOPAC,inactive: 0
CCCCCCCCCc1ccc(OCCOCCOCCOCCOCCOCCOCCOCCOCCO)cc1,neuronal differentiation score,ReNCell VM [1]; library: Spectrum,inactive: 0
same,dopaminergic neuron differentiation score,ReNCell VM [2]; library: Spectrum,inactive: 0
O=C1C=CC2=C3c4cc(O)c(O)cc4CC3(O)COC2=C1O (configuration not stated) [haematein],neuronal differentiation score,ReNCell VM [1]; library: Natural,inactive: -1
same,dopaminergic neuron differentiation score,ReNCell VM [2]; library: Natural,inactive: 0
O=P(O)(O)C(O)(Cc1cccnc1)P(=O)(O)O,neuronal differentiation score,ReNCell VM [1]; library: Spectrum,inactive: 0
same,dopaminergic neuron differentiation score,ReNCell VM [2]; library: Spectrum,inactive: 0
CN1[C@@H](CC(=O)c2ccccc2)CCC[C@H]1C[C@H](O)c1ccccc1 [Lobeline alpha (-) hydrochoride],neuronal differentiation score,ReNCell VM [1]; library: Phytochemical,inactive: 0
same,dopaminergic neuron differentiation score,ReNCell VM [2]; library: Phytochemical,inactive: 0
CN1CCN(CCCN2c3ccccc3Sc3ccc(Cl)cc32)CC1,neuronal differentiation score,ReNCell VM [1]; library: Spectrum,inactive: 0
same,dopaminergic neuron differentiation score,ReNCell VM [2]; library: Spectrum,active: 3
O=c1cc(N2CCOCC2)oc2c1ccc1ccccc12,neuronal differentiation score,ReNCell VM [1]; library: Tocriscreen,inactive: 0
same,dopaminergic neuron differentiation score,ReNCell VM [2]; library: Tocriscreen,inactive: 0
CC(=O)NCCc1c[nH]c2ccc(O)cc12 [N-Acetyl-5-hydroxytryptamine],neuronal differentiation score,ReNCell VM [1]; library: LOPAC,inactive: 0
same,dopaminergic neuron differentiation score,ReNCell VM [2]; library: LOPAC,inactive: 0
CO/N=C(\C(=O)N[C@@H]1C(=O)N2C(C(=O)O)=C(CSC(=O)c3ccco3)CS[C@H]12)c1csc(N)n1,neuronal differentiation score,ReNCell VM [1]; library: Spectrum,inactive: 0
same,dopaminergic neuron differentiation score,ReNCell VM [2]; library: Spectrum,inactive: 0

# Reprinted at random: two records from the list.
structure (smiles),measurement,setting,value
O=C1C=CC2=C3c4cc(O)c(O)cc4CC3(O)COC2=C1O (configuration not stated) [haematein],neuronal differentiation score,ReNCell VM [1]; library: Natural,inactive: -1
Cn1cnnc1Sc1c([N+](=O)[O-])ncn1C,neuronal differentiation score,ReNCell VM [1]; library: Tocriscreen,inactive: 0

# Rewritten with tabs: part of the list above
structure (smiles)	measurement	setting	value
C[N+](C)(C)CC(O)CC(=O)[O-] (configuration not stated)	neuronal differentiation score	ReNCell VM [1]; library: Spectrum	inactive: 0
same	dopaminergic neuron differentiation score	ReNCell VM [2]; library: Spectrum	inactive: 0
Nc1nnc(Sc2ncc([N+](=O)[O-])s2)s1	neuronal differentiation score	ReNCell VM [1]; library: Tocriscreen	inactive: 0
same	dopaminergic neuron differentiation score	ReNCell VM [2]; library: Tocriscreen	inactive: 0
